Results from PMC11984844.
These are yes or no findings as the source states them, for the method shown. In cells and extracts the contact can be indirect. Some results given as binding are weak or reduced against the parent protein; the word gives no strength. For part of these data: Where a sequence is shown, tags or fusion partners need not be part of it. Each block holds one molecule with its values, some of them ahead of it.

Chains of the proteins cited; added tags and fusions are not shown.
UniProt Q9Y297: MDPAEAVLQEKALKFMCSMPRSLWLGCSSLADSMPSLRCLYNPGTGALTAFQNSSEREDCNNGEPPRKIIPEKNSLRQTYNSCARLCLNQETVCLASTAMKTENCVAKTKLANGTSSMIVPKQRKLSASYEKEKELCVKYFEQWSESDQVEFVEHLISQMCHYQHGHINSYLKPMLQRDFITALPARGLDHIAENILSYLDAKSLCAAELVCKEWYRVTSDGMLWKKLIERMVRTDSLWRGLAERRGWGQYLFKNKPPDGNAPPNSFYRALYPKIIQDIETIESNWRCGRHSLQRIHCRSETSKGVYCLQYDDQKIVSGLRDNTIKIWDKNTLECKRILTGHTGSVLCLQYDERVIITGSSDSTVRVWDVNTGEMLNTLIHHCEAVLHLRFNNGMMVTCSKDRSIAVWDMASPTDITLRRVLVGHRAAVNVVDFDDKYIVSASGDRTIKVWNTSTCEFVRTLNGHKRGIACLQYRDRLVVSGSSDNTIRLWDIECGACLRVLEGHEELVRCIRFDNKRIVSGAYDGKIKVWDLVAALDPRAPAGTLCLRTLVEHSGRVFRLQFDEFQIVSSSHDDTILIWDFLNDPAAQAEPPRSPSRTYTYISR

Legend:
[1] = biological target: T1, Flag-eEF2K (eukaryotic elongation factor 2 kinase) (human) (UniProt O00418); experiment: co-IP; HEK293T cells transfected with Flag-eEF2K and HA-βTRCP, treated with different concentrations of C4, or with 0.4 µM C4 or 0.4 µM C1; immunoprecipitation with anti-Flag antibody, western blot with anti-HA
T1 sequence: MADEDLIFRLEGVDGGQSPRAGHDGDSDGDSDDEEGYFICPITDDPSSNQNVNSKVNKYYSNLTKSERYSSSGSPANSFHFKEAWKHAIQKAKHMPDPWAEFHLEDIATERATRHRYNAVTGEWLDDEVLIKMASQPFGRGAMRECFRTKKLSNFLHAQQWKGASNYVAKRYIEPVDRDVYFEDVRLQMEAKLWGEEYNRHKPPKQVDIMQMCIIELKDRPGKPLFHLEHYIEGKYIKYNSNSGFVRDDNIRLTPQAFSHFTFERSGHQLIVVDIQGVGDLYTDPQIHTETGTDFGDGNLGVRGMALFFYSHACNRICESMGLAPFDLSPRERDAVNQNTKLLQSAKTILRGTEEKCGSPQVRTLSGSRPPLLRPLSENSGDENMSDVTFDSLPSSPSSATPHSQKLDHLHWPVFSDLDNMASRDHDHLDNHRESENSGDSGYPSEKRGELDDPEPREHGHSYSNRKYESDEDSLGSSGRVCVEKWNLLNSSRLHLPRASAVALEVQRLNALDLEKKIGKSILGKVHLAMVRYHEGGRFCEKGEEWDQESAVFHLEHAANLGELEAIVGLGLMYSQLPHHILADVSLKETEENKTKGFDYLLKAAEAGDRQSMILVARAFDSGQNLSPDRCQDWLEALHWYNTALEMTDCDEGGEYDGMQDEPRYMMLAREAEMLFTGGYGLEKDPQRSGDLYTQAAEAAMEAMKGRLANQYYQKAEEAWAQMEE

[2] = biological target: T2, GST-eEF2K, purified recombinant (human) (UniProt O00418); experiment: pull-down; purified GST-eEF2K with HEK293T cell lysates expressing the full-length or different functional domains of HA-AURKA (the legend calls it immunoprecipitation); HA detected by western blot; only the target purified
T2 sequence: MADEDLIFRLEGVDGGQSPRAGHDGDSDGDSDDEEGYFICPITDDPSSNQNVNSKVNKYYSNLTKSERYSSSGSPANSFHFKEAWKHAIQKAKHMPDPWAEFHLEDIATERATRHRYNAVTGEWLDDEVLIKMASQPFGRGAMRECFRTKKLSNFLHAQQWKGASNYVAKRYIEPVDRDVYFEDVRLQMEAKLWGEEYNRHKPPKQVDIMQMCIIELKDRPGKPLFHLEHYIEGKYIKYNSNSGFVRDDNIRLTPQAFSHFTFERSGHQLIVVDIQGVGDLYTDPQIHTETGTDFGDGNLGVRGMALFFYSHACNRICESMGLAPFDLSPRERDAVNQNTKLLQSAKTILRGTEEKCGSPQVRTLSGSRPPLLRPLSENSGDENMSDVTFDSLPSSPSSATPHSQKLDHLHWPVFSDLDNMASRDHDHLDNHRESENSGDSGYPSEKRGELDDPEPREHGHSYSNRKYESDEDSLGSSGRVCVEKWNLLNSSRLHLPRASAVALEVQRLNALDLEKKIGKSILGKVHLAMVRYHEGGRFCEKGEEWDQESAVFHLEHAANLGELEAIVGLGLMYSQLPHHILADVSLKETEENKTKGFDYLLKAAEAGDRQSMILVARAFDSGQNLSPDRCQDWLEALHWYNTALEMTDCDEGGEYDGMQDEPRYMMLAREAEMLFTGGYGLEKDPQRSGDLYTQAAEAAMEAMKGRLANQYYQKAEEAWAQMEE

[3] = biological target: T1, Flag-eEF2K (eukaryotic elongation factor 2 kinase) (human); experiment: co-IP; HEK293T cells co-transfected with Flag- and HA-tagged plasmids; immunoprecipitation with anti-Flag or anti-HA antibodies; RIPA lysis buffer (medium), protein A/G magnetic beads overnight at 4 °C; western blot
[4] = biological target: T2, GST-eEF2K, purified recombinant (human); experiment: pull-down; lysate of HEK293T cells transfected with HA-AURKA for 48 h (legend: anti-HA immune complexes) incubated with purified GST or GST-eEF2K at 4 °C for 4 h; glutathione beads; HA detected by western blot; only the target purified
[5] = biological target: T3, eEF2K, endogenous in MDA-MB-231 cells (human (endogenous in MDA-MB-231)) (UniProt O00418); experiment: co-IP; endogenous proteins of MDA-MB-231 cells immunoprecipitated with anti-AURKA or anti-eEF2K antibody; western blot
T3 sequence: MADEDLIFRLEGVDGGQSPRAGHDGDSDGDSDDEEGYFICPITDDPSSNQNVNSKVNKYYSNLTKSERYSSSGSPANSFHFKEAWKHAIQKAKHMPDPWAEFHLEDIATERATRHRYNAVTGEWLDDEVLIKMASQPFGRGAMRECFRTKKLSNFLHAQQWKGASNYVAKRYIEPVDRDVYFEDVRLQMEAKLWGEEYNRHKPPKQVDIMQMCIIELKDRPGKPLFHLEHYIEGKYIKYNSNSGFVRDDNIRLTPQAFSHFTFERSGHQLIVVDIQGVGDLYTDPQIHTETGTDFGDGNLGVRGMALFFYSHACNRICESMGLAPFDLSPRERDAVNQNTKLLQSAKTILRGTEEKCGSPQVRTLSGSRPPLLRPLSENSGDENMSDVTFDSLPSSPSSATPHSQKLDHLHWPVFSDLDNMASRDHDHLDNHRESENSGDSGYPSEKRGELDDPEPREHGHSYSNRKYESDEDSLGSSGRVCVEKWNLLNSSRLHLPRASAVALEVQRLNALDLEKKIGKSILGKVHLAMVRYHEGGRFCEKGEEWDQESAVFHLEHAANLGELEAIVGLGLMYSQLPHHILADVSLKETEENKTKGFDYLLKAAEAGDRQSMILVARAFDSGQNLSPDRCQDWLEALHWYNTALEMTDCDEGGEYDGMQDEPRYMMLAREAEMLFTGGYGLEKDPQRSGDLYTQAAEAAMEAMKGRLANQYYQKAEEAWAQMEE

binding [1]: binds
Molecule: HA-βTRCP (beta-transducin repeats-containing protein) (from UniProt Q9Y297 1-605)

binding [2]: binds
Molecule: TANSSKPSNCQNKESASKQS (domain or fragment, UniProt O14965 384-403) [HA-AURKA terminal regulatory domain (aa 384–403)]

binding [2]: binds
B1: HA-AURKA central catalytic domain (aa 127–384) (domain or fragment, UniProt O14965 127-384)
chain: QWALEDFEIGRPLGKGKFGNVYLAREKQSKFILALKVLFKAQLEKAGVEHQLRREVEIQSHLRHPNILRLYGYFHDATRVYLILEYAPLGTVYRELQKLSKFDEQRTATYITELANALSYCHSKRVIHRDIKPENLLLGSAGELKIADFGWSVHAPSSRRTTLCGTLDYLPPEMIEGRMHDEKVDLWSLGVLCYEFLVGKPPFEANTYQETYKRISRVEFTFPDFVTEGARDLISRLLKHNPSQRPMLREVLEHPWIT

Second part, the molecule before the results:

B2: HA-AURKA (aurora kinase A), full length, wild type (enzyme, UniProt O14965 1-403)
chain: MDRSKENCISGPVKATAPVGGPKRVLVTQQFPCQNPLPVNSGQAQRVLCPSNSSQRIPLQAQKLVSSHKPVQNQKQKQLQATSVPHPVSRPLNNTQKSKQPLPSAPENNPEEELASKQKNEESKKRQWALEDFEIGRPLGKGKFGNVYLAREKQSKFILALKVLFKAQLEKAGVEHQLRREVEIQSHLRHPNILRLYGYFHDATRVYLILEYAPLGTVYRELQKLSKFDEQRTATYITELANALSYCHSKRVIHRDIKPENLLLGSAGELKIADFGWSVHAPSSRRTTLCGTLDYLPPEMIEGRMHDEKVDLWSLGVLCYEFLVGKPPFEANTYQETYKRISRVEFTFPDFVTEGARDLISRLLKHNPSQRPMLREVLEHPWITANSSKPSNCQNKESASKQS
binding [3]: binds
binding [4]: binds

B3: AURKA, endogenous in MDA-MB-231 cells (enzyme, UniProt O14965 1-403)
chain: MDRSKENCISGPVKATAPVGGPKRVLVTQQFPCQNPLPVNSGQAQRVLCPSNSSQRIPLQAQKLVSSHKPVQNQKQKQLQATSVPHPVSRPLNNTQKSKQPLPSAPENNPEEELASKQKNEESKKRQWALEDFEIGRPLGKGKFGNVYLAREKQSKFILALKVLFKAQLEKAGVEHQLRREVEIQSHLRHPNILRLYGYFHDATRVYLILEYAPLGTVYRELQKLSKFDEQRTATYITELANALSYCHSKRVIHRDIKPENLLLGSAGELKIADFGWSVHAPSSRRTTLCGTLDYLPPEMIEGRMHDEKVDLWSLGVLCYEFLVGKPPFEANTYQETYKRISRVEFTFPDFVTEGARDLISRLLKHNPSQRPMLREVLEHPWITANSSKPSNCQNKESASKQS
binding [5]: binds
